No constants are given. Whether binding was seen depends on the method and setting. Binding seen in cells or lysates may run through a third protein. Here binding means that the protein was enriched with, or labelled near, the bait; the list need not be complete.
B1: NOS3 (protein, UniProt Q62600 1-1202)
chain: MGNLKSVGQEPGPPCGLGLGLGLGLCGKQGPASPAPEPSQAPVPPSPTRPAPDHSPPLTRPPDGPKFPRVKNWEVGSITYDTLSAQAQQDGPCTPRRCLGSLVFPRKLQSRPTQGPSPTEQLLGQARDFINQYYNSIKRSGSQAHEQRLQEVEAEVVATGTYQLRESELVFGAKQAWRNAPRCVGRIQWGKLQVFDARDCRTAQEMFTYICNHIKYATNRGNLRSAITVFPQRYAGRGDFRIWNSQLVRYAGYRQQDGSVRGDPANVEITELCIQHGWTPGNGRFDVLPLLLQAPDEPPELFTLPPELVLEVPLEHPTLEWFAALGLRWYALPAVSNMLLEIGGLEFPAAPFSGWYMSSEIGMRDLCDPHRYNILEDVAVCMDLDTRTTSSLWKDKAAVEINVAVLYSYQLAKVTIVDHHAATASFMKHLENEQKARGGCPADWAWIVPPISGSLTPVFHQEMVNYFLSPAFRYQPDPWKGSAAKGTGITRKKTFKEVANAVKISASLMGTVMAKRVKATILYGSETGRAQSYAQQLGRLFRKAFDPRVLCMDEYDVVSLEHEALVLVVTSTFGNGDPPENGESFAAALMEMSGPYNSSPRPEQHKSYKIRFNSVSCSDPLVSSWRRKRKESSNTDSAGALGTLRFCVFGLGSRAYPHFCAFARAVDTRLEELGGERLLQLGQGDELCGQEEAFRGWAQAAFQAACETFCVGEDAKAAARDIFSPKRSWKRQRYRLSTQAESLQLLPRLTHVHRRKMFQATILSVENLQSSKSTRATILVRLDTGSQEGLQYQPGDHIGVCPPNRPGLVEALLSRVEDPPPSTEPVAVEQLEKGSPGGPPPGWVRDPRLPPCTLRQALTYFLDITSPPSPRLLRLLSTLAEESSEQQELEALSQDPRRYEEWKWFRCPTLLEVLEQFPSVALPAPLILTQLPLLQPRYYSVSSAPSAHPGEIHLTVAVLAYRTQDGLGPLHYGVCSTWMSQLKAGDPVPCFIRGAPSFRLPPDPNLPCILVGPGTGIAPFRGFWQDRLHDIEIKGLQPAPMTLVFGCRCSQLDHLYRDEVLDAQQRGVFGQVLTAFSRDPGSPKTYVQDLLRTELAAEVHRVLCLEQGHMFVCGDVTMATSVLQTVQRILATEGSMELDEAGDVIGVLRDQQRYHEDIFGLTLRTQEVTSRIRTQSFSLQERQLRGAVPWSFDPPTQETPGS
B2: RAB3A (protein, UniProt P63012 1-220)
chain: MASATDSRYGQKESSDQNFDYMFKILIIGNSSVGKTSFLFRYADDSFTPAFVSTVGIDFKVKTIYRNDKRIKLQIWDTAGQERYRTITTAYYRGAMGFILMYDITNEESFNAVQDWSTQIKTYSWDNAQVLLVGNKCDMEDERVVSSERGRQLADHLGFEFFEASAKDNINVKQTFERLVDVICEKMSESLDTADPAVTGAKQGPQLTDQQAPPHQDCAC
B3: MYLK3 (protein, UniProt E9PT87 1-786)
chain: MSGVSEEDPEGLGPQGLPALGGACLVTVDKKLNVLTEKVDRLLHFQEDVTEKLQCVCQGMDHLEQGLHRLEASQELGLAGPGSTSPAAAQAAWPEVLELVRAVRQEGAQHGARLEALFKMVVAVDRAITLVGSTIQNSKVDDFILQGTVPWRKGSLADGPEENKEQAEVAGVKPKHVLNTGSVQAATSRALWEESQKQDTPVGTVEGLPLIIDTSLKGADLTQAGASLRQGVEALDPGQEPPPTEAESRLPALASEDTGTTLELSVAIDRISEVLTSLRMSQSAGEGTSSSKPDCSEPGPQPLGPLTTDSDIHSDEGLPRISVRMREMTTPEELFETQGGSPIGSAEAPGPGTVLEDQIPKGARPFPPLPKRSCNNGGASAEEATGPGAEPIRGPSLVTRDWRDEPVGTTDLQQGRDPGAVSPEPGKDHAAQGPGRTEAGRRVSSAAEAAIVVLDDSAAPPAPFEHRVVSIKDTLISTSYTVSQHEVLGGGRFGQVHRCTERSTGLALAAKIIKVKNIKDREDVKNEINIMNQLSHVNLIQLYDAFESKNSFTLIMEYVDGGELFDRITDEKYHLTELDVVLFTRQICEGVHYLHQHYILHLDLKPENILCVSQTGHQIKIIDFGLARRYKPREKLKVNFGTPEFLAPEVVNYEFVSFPTDMWSVGVITYMLLSGLSPFLGETDAETMNFIVNCSWDFDADTFKGLSEEAKDFVSRLLVKEKSCRMSATQCLKHEWLNHLIAKASGSNVRLRSQLLLQKYMAQRKWKKHFHVVTAVNRLRKFPTCP
B4: CAND1 (protein, UniProt P97536 1-1230)
chain: MASASYHISNLLEKMTSSDKDFRFMATNDLMTELQKDSIKLDDDSERKVVKMILKLLEDKNGEVQNLAVKCLGPLVSKVKEYQVETIVDTLCTNMLSDKEQLRDISSIGLKTVIGELPPASSGSALAANVCKKITGRLTSAIAKQEDVSVQLEALDIMADMLSRQGGLLVNFHPSILTCLLPQLTSPRLAVRKRTIIALGHLVMSCGNIVFVDLIEHLLSELSKNDSMSTTRTYIQCIAAISRQAGHRIGEYLEKIIPLVVKFCNVDDDELREYCIQAFESFVRRCPKEVYPHVSTIINICLKYLTYDPNYNYDDEDEDENAMDADGGDDDDQGSDDEYSDDDDMSWKVRRAAAKCLDAVVSTRHEMLPEFYKTVSPALISRFKEREENVKADVFHAYLSLLKQTRPVQSWLCDPDAMEQGETPLTMLQSQVPNIVKALHKQMKEKSVKTRQCCFNMLTELVNVLPGALTQHIPVLVPGIIFSLNDKSSSSNLKIDALSCLYVILCNHSPQVFHPHVQALVPPVVACVGDPFYKITSEALLVTQQLVKVIRPLDQPSSFDATPYIKDLFTCTIKRLKAADIDQEVKERAISCMGQIICNLGDNLGPDLSNTLQIFLERLKNEITRLTTVKALTLIAGSPLKIDLRPVLGEGVPILASFLRKNQRALKLGTLSALDILIKNYSDSLTAAMIDAVLDELPPLISESDMHVSQMAISFLTTLAKVYPSSLSKISGSILNELIGLVRSPLLQGGALSAMLDFFQALVVTGTNNLGYMDLLRMLTGPVYSQSTALTHKQSYYSIAKCVAALTRACPKEGPAVVGQFIQDVKNSRSTDSIRLLALLSLGEVGHHIDLSGQLELKSVILEAFSSPSEEVKSAASYALGSISVGNLPEYLPFVLQEITSQPKRQYLLLHSLKEIISSASVVGLKPYVENIWALLLKHCECAEEGTRNVVAECLGKLTLIDPETLLPRLKGYLISGSSYARSSVVTAVKFTISDHPQPIDPLLKNCIGDFLKTLEDPDLNVRRVALVTFNSAAHNKPSLIRDLLDSVLPHLYNETKVRKELIREVEMGPFKHTVDDGLDIRKAAFECMYTLLDSCLDRLDIFEFLNHVEDGLKDHYDIKMLTFLMLVRLSTLCPSAVLQRLDRLVEPLRATCTTKVKANSVKQEFEKQDELKRSAMRAVAALLTIPEAEKSPLMSEFQSQISSNPELAAIFESIQKDSSSTNLESMDTS
B5: FAM129A (protein, UniProt Q9ESN0 1-937)
chain: MGGSASSQLDEGKCAYIRGKTEASIKNFSPYYSRQYSVAFCNHVRSEVEQQRDLTSQFLKTKPPLEPGTVLYEAELSQFAEDIRKWKDRYVVVKNDFAVESYENKEAYQRGAVPKSRILPAGGKVLTSEEEYSLLSDKHFPDPTASSEKNSQPFLVLPKAFPVYLWQPYLRHGYFCFHEAAEQQKFSALLNDCIRHLNHDYMKQTTFEAQAFLEAVQFFRQEKGHYGAWEVITGDEVQILSKLVMEELLPTLQTDLLPKLKGKKNDRKRAWFGLLEEAYNLVQHQVSEGLSALKEECRALTKDLEGTIRSDMDQIVNSKNFLTGKIRAMVAQPAENRCGESVQPFLASILEELMGPVSSGFSEVRALFEKEVDELSQSFHTTQDGAQLKECLDQLMKLPLDSVKMEPCYTKVTLLPERLLDLQSRFRFPHVDLVVQRTQNYMQELMENAVFTFEQLLSPYLQGEASRTAVAIEKVKLRVLKQYDYDSSTIRKKIFQEALIQITLPTVQKALASTCKPELQKYEQFIFADHTNMIHVENIYEEILYQILLDETLKVITEAAILKKHNLFEDNMALPSESVSSLTDLKTSMGSNQASPARGASAILPGAPGDEAPGSEVFQGPEEKQQQPGVPGSLAREESASISGSSPPSGEDGQVSVSGVDNSAGNPLSADNSAGPLSSHLSEAEAGEPPKDEETAHKRPESSAVPGSLRELKELLTVTVFVESAPEIGNDTLNGTPVPQEDKKEEEEEEESKIHPEASGPAAIQQDSCEESEVREREAHPMPLEAEAPGVNLGTLPEGRGPTSQSTGEGLTENTSCLGPIEEPSEAQGPTEEVLLATVSTQDSTEAGGEAVHSVTVTPQEDATLSSNPICPVENNEGPQVSEDQEVLGGNDSPALAMDTEQINDAHVYECHWEVEDAPSADILDVHDCDVGSPGEW
B6: RRAD (protein, UniProt P55043 1-306)
chain: MTLNGGSGAGGSRSAGRERDRRRGSTPWGPAPPLHRRSMPVDERDLQAALTPGSLAATAAGTRTQGQRLDWPEGSSDSLSSGDSGSEDGVYKVHAAGAPGVGKSALARIFGGVEDGPEAEAAGHTYDRSITVDGEEASLMVYDIWEQDGGCWLPGHCMAMGDAYVIVYSITDKGSFEKASELRVQLRARRQTDVPIILVGNKSDLVRSREVSVDEGRACAEVFDCKFIETSAALHHNVQALFEGVVRQIRLRRDSKEDNARRQAGTRRRESLGKKAKLFLGRIVARNSRKMAFLAKSKSCHDLSVL
B7: PSMC2 (protein, UniProt Q63347 1-433)
chain: MPDYLGADQRKTKEDEKDDKPIRALDEGDIALLKTYGQSTYSRQIKQVEDDIQQLLKKINELTGIKESDTGLAPPALWDLAADKQTLQSEQPLQVARCTKIINADSEDPKYIINVKQFAKFVVDLSDQVAPTDIEEGMRVGVDRNKYQIHIPLPPKIDPTVTMMQVEEKPDVTYSDVGGCKEQIEKLREVVETPLLHPERFVNLGIEPPKGVLLFGPPGTGKTLCARAVANRTDACFIPVIGSELVQKYVGEGARMVRELFEMARTKKACLIFFDEIDAIGGARFDDGAGGDNEVQRTMLELINQLDGFDPRGNIKVLMATNRPDTLDPALMRPGRLDRKIEFSLPDLEGRTHIFKIHARSMSVERDIRFELLARLCPNSTGAEIRSVCTEAGMFAIRARRKIATEKDFLEAVNKVIKSYAKFSATPRYMTYN
B8: FGB (protein, UniProt P14480 19-479)
chain: ATTDSDKVDLSIARGHRPVDRRKEEPPSLRPAPPPISGGGYRARPAKVDAGQKKVERKPPDAGGCVHGDGDMGVLCPTGCELRQTLLNHERPIKNSIAELNSNINSVSETSSVTFQYLTLLKDMWKKKQAQVKDNENVINEYSSILEDQKLYIDETVNDNIPLNLRVLRSILEDLRSKIQKLESDISAQTEYCHTPCTVNCNIPVVSGKECEEIIRKGGETSEMYLIQPDTSSKPYRVYCDMKTENGGWTVIQNRQDGSVDFGRKWDPYKKGFGNIATNEDTKKYCGLPGEYWLGNDKISQLTRIGPTELLIEMEDWKGDKVKAHYGGFTVQTEANKYQVSVNKYKGTAGNALMEGASQLVGENRTMTIHNGMFFSTYDRDNDGWVTTDPRKQCSKEDGGGWWYNRCHAANPNGRYYWGGLYSWDMSKHGTDDGVVWMNWKGSWYSMRRMSMKIRPVFPQQ

target: β2-adrenergic receptor (UniProt P07550); assay: affinity purification with mass spectrometry; purified Flag-β2AR in rHDL immobilised on M1 anti-Flag resin, occupied by 50 µM BI-167107 (full agonist) or 50 µM carazolol (inverse agonist); adult rat heart cytosol (10 mg/ml, 4 mM CaCl2) overnight at 4°C; eluted with FLAG peptide and EDTA; gel slices, LC-MS; proteins of the M1 resin, empty rHDL and Ni-NTA controls subtracted; hits of either or both samples; only the target purified

| binding | Binder |
| --- | --- |
| binds | B1 |
| binds | B2 |
| binds | B3 |
| binds | B4 |
| binds | B5 |
| binds | B6 |
| binds | B7 |
| binds | B8 |

— publication PMC3556083
